No constants are given. Whether binding was seen depends on the method and setting. Some results given as binding are weak or reduced against the parent protein; the word gives no strength.

Our source for the binding values is paper PMC5014086 (2016).

The target of experiment [1] is T1, LRP6_(PE3PE4) (β-propeller/EGF repeats 3 and 4 of LRP6) (human) (UniProt O75581).
T1 sequence: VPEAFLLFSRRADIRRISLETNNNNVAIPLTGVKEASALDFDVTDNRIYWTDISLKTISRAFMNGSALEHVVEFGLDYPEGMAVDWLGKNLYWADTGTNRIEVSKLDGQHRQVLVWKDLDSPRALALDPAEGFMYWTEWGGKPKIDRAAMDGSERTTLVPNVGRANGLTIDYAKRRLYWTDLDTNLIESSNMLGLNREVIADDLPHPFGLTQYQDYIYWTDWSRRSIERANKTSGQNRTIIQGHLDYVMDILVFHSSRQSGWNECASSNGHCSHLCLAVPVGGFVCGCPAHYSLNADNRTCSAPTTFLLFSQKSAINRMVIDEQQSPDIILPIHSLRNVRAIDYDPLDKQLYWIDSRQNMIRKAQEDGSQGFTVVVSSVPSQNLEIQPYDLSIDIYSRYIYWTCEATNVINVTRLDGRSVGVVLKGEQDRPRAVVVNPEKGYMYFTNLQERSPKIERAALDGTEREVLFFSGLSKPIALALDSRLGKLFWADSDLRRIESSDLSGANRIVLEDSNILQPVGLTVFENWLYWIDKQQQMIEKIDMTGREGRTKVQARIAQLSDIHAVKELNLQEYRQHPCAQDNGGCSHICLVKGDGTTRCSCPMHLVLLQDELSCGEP
As to the kind of experiment: crystal structure; ternary complex from an LRP6_(PE3PE4)-DKK1fl-KRM1ECD sample at 9 mg/mL; anisotropic data to 3.5 Å, 6.4 Å and 3.7 Å; molecular replacement; both purified.

The target of experiment [2] is T2, KRM1ECD (ectodomain of human Kremen1, construct KRM1_(ECD-TEV), after TEV protease treatment) (human) (UniProt Q96MU8).
T2 sequence (chain, N-glycans (four glycosylation sites), treated with endoglycosidase F1): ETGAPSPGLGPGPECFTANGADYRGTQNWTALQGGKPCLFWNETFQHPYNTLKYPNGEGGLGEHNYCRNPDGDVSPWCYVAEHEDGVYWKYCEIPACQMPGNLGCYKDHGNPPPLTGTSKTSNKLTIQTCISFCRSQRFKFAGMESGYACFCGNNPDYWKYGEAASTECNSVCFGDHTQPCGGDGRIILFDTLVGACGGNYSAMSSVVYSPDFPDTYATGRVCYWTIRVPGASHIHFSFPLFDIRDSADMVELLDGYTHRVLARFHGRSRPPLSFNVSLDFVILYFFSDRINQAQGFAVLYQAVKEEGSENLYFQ
The experiment is described as above.

In experiment [3] the target is T2, KRM1ECD (ectodomain of human Kremen1, construct KRM1_(ECD-TEV), after TEV protease treatment) (human). The experiment is described as follows: SEC; gel filtration of complexes co-expressed in the KRM1_(ECD-TEV) stable cell line and purified from conditioned medium; 10 mM HEPES/NaOH (pH 7.5), 150 mM NaCl; data not shown; both purified. (In general: SEC sorts molecules by how far they enter the pores of the column.)

B1: full-length DKK1 (ligand)
chain: TLNSVLNSNAIKNLPPPLGGAAGHPGSAVSAAPGILYPGGNKYQTIDNYQPYPCAEDEECGTDEYCASPTRGGDAGVQICLACRKRRKRCMRHAMCCPGNYCKNGICVSSDQNHFRGEIEETITESFGNDHSTLDGYSRRTTLSSKMYHTKGQEGSVCLRSSDCASGLCCARHFWSKICKPVLKEGQVCTKHRRKGSHGLEIFQRCYCGEGLSCRIQKDHHQASNSSRLHTCQRH
For B1, the binding entry in experiment [1], in experiment [2] and in experiment [3] was “binds” throughout.

B2: DKK1_(Linker-CRD2) in the purified complex with KRM1ECD (domain or fragment, UniProt O94907 141-266)
chain: SDQNHFRGEIEETITESFGNDHSTLDGYSRRTTLSSKMYHTKGQEGSVCLRSSDCASGLCCARHFWSKICKPVLKEGQVCTKHRRKGSHGLEIFQRCYCGEGLSCRIQKDHHQASNSSRLHTCQRH
Take B2: the binding result in experiment [3] is listed as “binds”.

B3: DKK1_(CRD2), released from SUMO-DKK1_(Linker-TEV-CRD2) (domain or fragment, UniProt O94907 181-266)
chain: TKGQEGSVCLRSSDCASGLCCARHFWSKICKPVLKEGQVCTKHRRKGSHGLEIFQRCYCGEGLSCRIQKDHHQASNSSRLHTCQRH
For B3, the binding result in experiment [3] was “binds”.
